{"source": "PubChem BioAssay AID686943 (Drosophila RNAi Screening Center, 2013)", "assay": "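Search across the genome for regulators of signalling from receptor tyrosine kinase to ERK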 (primary screen)", "cell system": "Drosophila S2R+ haemocyte-like cells expressing YFP-tagged ERK (Rolled)", "reagent": "long dsRNA against Drosophila genes", "treatment": "insulin stimulation versus unstimulated cells; dose and duration not given", "read-out": "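Per-plate z-scores of phospho-ERK immunostaining normalised to YFP-tagged ERK, measured with and without insulin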", "reading the numbers": "replicate 1, z-score of dpERK with insulin and replicate 2, z-score of dpERK with insulin: higher = more active ERK per ERK-YFP after insulin", "note": "The deposit covers about 23,000 reagents; below is a random part of those with a known target gene and a result. 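Extra replicates exist only for a retested subset of genes; insulin dose and duration not given; both raised and lowered dpERK matter.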 Reagents against one gene are numbered here. A plus sign joins genes that one reagent is predicted to hit. Further read-outs or replicates are left out here. Not given: the amount of reagent, the time to read-out."}
{"Gene": "sand (GeneID 35777)", "reagent": 1, "replicate 1, z-score of dpERK with insulin": 0.3, "replicate 2, z-score of dpERK with insulin": 0.49}
{"Gene": "CCT7 (GeneID 41054)", "reagent": 1, "replicate 1, z-score of dpERK with insulin": -0.12, "replicate 2, z-score of dpERK with insulin": -0.27}
{"Gene": "rdgB (GeneID 32340)", "reagent": 1, "replicate 1, z-score of dpERK with insulin": -0.52, "replicate 2, z-score of dpERK with insulin": 0.43}
{"Gene": "CG18586 (GeneID 38659)", "reagent": 1, "replicate 1, z-score of dpERK with insulin": 0.44, "replicate 2, z-score of dpERK with insulin": 0.58}
{"Gene": "CG40439 (GeneID 3355120)", "reagent": 1, "replicate 1, z-score of dpERK with insulin": 0.18, "replicate 2, z-score of dpERK with insulin": 0.4}
{"Gene": "corto (GeneID 40616)", "reagent": 1, "replicate 1, z-score of dpERK with insulin": 0.51, "replicate 2, z-score of dpERK with insulin": -0.63}
{"Gene": "corto (GeneID 40616)", "reagent": 2, "replicate 1, z-score of dpERK with insulin": 0.8, "replicate 2, z-score of dpERK with insulin": 0.86}
{"Gene": "corto (GeneID 40616)", "reagent": 3, "replicate 1, z-score of dpERK with insulin": -0.32, "replicate 2, z-score of dpERK with insulin": 0.46}
{"Gene": "CG14572 (GeneID 40422)", "reagent": 1, "replicate 1, z-score of dpERK with insulin": 0.48, "replicate 2, z-score of dpERK with insulin": -0.15}
{"Gene": "CG12206 (GeneID 31316)", "reagent": 1, "replicate 1, z-score of dpERK with insulin": -3.87, "replicate 2, z-score of dpERK with insulin": -0.03}
{"Gene": "rasp (GeneID 44098)", "reagent": 1, "replicate 1, z-score of dpERK with insulin": 0.35, "replicate 2, z-score of dpERK with insulin": 0.11}
{"Gene": "CG18094 (GeneID 35232)", "reagent": 1, "replicate 1, z-score of dpERK with insulin": -0.08, "replicate 2, z-score of dpERK with insulin": 0.36}
{"Gene": "JYalpha (GeneID 5740846)", "reagent": 1, "replicate 1, z-score of dpERK with insulin": 0.57, "replicate 2, z-score of dpERK with insulin": 0.12}
{"Gene": "Pkc98E (GeneID 43428)", "reagent": 1, "replicate 1, z-score of dpERK with insulin": -1.01, "replicate 2, z-score of dpERK with insulin": -0.53}
{"Gene": "CG12464 (GeneID 36516)", "reagent": 1, "replicate 1, z-score of dpERK with insulin": 1.05, "replicate 2, z-score of dpERK with insulin": -0.13}
{"Gene": "CG17122 (GeneID 40226)", "reagent": 1, "replicate 1, z-score of dpERK with insulin": 0.31, "replicate 2, z-score of dpERK with insulin": 0.36}
{"Gene": "mxt (GeneID 33686)", "reagent": 1, "replicate 1, z-score of dpERK with insulin": -0.11, "replicate 2, z-score of dpERK with insulin": -0.7}
{"Gene": "CG7065 (GeneID 31844)", "reagent": 1, "replicate 1, z-score of dpERK with insulin": 1.28, "replicate 2, z-score of dpERK with insulin": 1.1}
{"Gene": "Ser (GeneID 43275)", "reagent": 1, "replicate 1, z-score of dpERK with insulin": 0.37, "replicate 2, z-score of dpERK with insulin": -0.18}
{"Gene": "ash2 (GeneID 42936)", "reagent": 1, "replicate 1, z-score of dpERK with insulin": 1.3, "replicate 2, z-score of dpERK with insulin": -0.26}
{"Gene": "CG13204 (GeneID 36227)", "reagent": 1, "replicate 1, z-score of dpERK with insulin": 0.81, "replicate 2, z-score of dpERK with insulin": -0.13}

Part of the list above, limited to “replicate 2, z-score of dpERK with insulin”:
CG14572 (GeneID 40422)	-0.15
CG12206 (GeneID 31316)	-0.03
rasp (GeneID 44098)	0.11
CG18094 (GeneID 35232)	0.36
JYalpha (GeneID 5740846)	0.12
Pkc98E (GeneID 43428)	-0.53
CG12464 (GeneID 36516)	-0.13

The results go on.
{"Gene": "Sam-S (GeneID 48552)", "reagent": 1, "replicate 1, z-score of dpERK with insulin": 2.38, "replicate 2, z-score of dpERK with insulin": 0.26}
{"Gene": "att-ORFB + DPCoAC", "reagent": 1, "replicate 1, z-score of dpERK with insulin": -0.14, "replicate 2, z-score of dpERK with insulin": 1.77}
{"Gene": "TwdlJ (GeneID 43206)", "reagent": 1, "replicate 1, z-score of dpERK with insulin": 0.6, "replicate 2, z-score of dpERK with insulin": 0.54}
{"Gene": "CG11227 (GeneID 33071)", "reagent": 1, "replicate 1, z-score of dpERK with insulin": 0.05, "replicate 2, z-score of dpERK with insulin": 0.03}
{"Gene": "CG7906 (GeneID 39575)", "reagent": 1, "replicate 1, z-score of dpERK with insulin": -0.17, "replicate 2, z-score of dpERK with insulin": 0.09}
{"Gene": "GABA-B-R3 (GeneID 33248)", "reagent": 1, "replicate 1, z-score of dpERK with insulin": -0.06, "replicate 2, z-score of dpERK with insulin": 0.56}
{"Gene": "tej (GeneID 36590)", "reagent": 1, "replicate 1, z-score of dpERK with insulin": 0.36, "replicate 2, z-score of dpERK with insulin": 0.08}
{"Gene": "CG31674 (GeneID 318878)", "reagent": 1, "replicate 1, z-score of dpERK with insulin": 0.33, "replicate 2, z-score of dpERK with insulin": -0.8}
{"Gene": "CG30099 (GeneID 36818)", "reagent": 1, "replicate 1, z-score of dpERK with insulin": 0.01, "replicate 2, z-score of dpERK with insulin": -0.19}
{"Gene": "CG31459 (GeneID 318746)", "reagent": 1, "replicate 1, z-score of dpERK with insulin": 1.27, "replicate 2, z-score of dpERK with insulin": 0.58}
{"Gene": "Upf1 (GeneID 32153)", "reagent": 1, "replicate 1, z-score of dpERK with insulin": -2.27, "replicate 2, z-score of dpERK with insulin": -2.84}
{"Gene": "RpS2 (GeneID 34309)", "reagent": 1, "replicate 1, z-score of dpERK with insulin": -2.82, "replicate 2, z-score of dpERK with insulin": -1.07}
{"Gene": "CG44433 (GeneID 37150)", "reagent": 1, "replicate 1, z-score of dpERK with insulin": 0.61, "replicate 2, z-score of dpERK with insulin": 0.08}
{"Gene": "CG44433 (GeneID 37150)", "reagent": 2, "replicate 1, z-score of dpERK with insulin": 0.21, "replicate 2, z-score of dpERK with insulin": -0.11}
{"Gene": "PGRP-SD (GeneID 38858)", "reagent": 1, "replicate 1, z-score of dpERK with insulin": 1.1, "replicate 2, z-score of dpERK with insulin": 0.37}
{"Gene": "CG2841 (GeneID 44529)", "reagent": 1, "replicate 1, z-score of dpERK with insulin": 1.17, "replicate 2, z-score of dpERK with insulin": 0.35}
{"Gene": "CG2841 (GeneID 44529)", "reagent": 2, "replicate 1, z-score of dpERK with insulin": -0.48, "replicate 2, z-score of dpERK with insulin": -0.8}
{"Gene": "CG2841 (GeneID 44529)", "reagent": 3, "replicate 1, z-score of dpERK with insulin": 0.03, "replicate 2, z-score of dpERK with insulin": 0.69}
{"Gene": "CG4577 (GeneID 33291)", "reagent": 1, "replicate 1, z-score of dpERK with insulin": 0.49, "replicate 2, z-score of dpERK with insulin": -0.51}
